Assay results reported in article PMC5622167.
No constants are given. Whether binding was seen depends on the method and setting.

Target: T1, bovine α-lactalbumin (bovine), P00711
T1 chain: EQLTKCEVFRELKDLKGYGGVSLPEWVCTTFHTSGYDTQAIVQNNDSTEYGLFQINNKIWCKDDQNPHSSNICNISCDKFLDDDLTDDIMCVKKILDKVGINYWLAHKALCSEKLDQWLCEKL
Assay: SEC; size-exclusion HPLC (COSMOSIL 5Diol-300-II), 50 mM sodium phosphate buffer, pH 6.5, 0.5 mL/min; BLA (20 µg) heated at 100 °C in HEPES buffer, pH 6.8, with or without 1 mM MMTS; both purified
Conditions: remark: other sources report otherwise

binding: no binding
B1: bovine α-lactalbumin, P00711 20-142 (protein)
chain: T1 chain
